Laboratory results: publication PMC7862700
This is one part of the list. The exact form of the protein is not confirmed.

Target: T1, ELF2 (UniProt Q15723)
T1 sequence: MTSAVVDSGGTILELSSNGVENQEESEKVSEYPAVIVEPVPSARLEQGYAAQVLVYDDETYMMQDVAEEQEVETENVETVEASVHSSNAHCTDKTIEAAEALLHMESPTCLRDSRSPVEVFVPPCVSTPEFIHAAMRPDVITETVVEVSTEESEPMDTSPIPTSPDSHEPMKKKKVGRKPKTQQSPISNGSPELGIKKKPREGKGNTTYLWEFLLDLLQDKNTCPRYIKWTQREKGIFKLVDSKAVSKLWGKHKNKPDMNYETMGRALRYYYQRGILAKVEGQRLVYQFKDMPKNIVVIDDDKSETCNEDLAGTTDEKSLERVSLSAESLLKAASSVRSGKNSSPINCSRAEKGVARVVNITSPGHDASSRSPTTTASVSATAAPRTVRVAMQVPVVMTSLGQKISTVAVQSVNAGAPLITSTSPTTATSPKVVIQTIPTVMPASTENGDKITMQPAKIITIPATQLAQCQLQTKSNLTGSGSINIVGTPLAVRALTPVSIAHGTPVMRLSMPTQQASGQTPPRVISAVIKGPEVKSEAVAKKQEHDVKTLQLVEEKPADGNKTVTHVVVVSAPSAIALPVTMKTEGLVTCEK
Assay: DAPPL (digital affinity profiling via proximity ligation, sequencing)
Details: 10 mM Tris-HCl pH 7.5, 50 mM NaCl, 1 mM DTT, 4% glycerol, room temperature, 30 min; GST-TFs on glutathione beads, 16-mer random dsDNA library, 0.1% …; high values mean tight binding; double strand, one strand shown; scale: fold enrichment (6-mer frequency, TF over GST control)

Sequence | binding signal
TTACAC | 1.24
TTTTGC | 1.39
TATGGT | 1.24
TTTCTT | 1.39
TCCCTA | 1.31
CTGGCC | 1.08
CAAAAC | 1.25
GCTCCA | 1.19
TAACAT | 1.29
TCTACG | 1.34
CTAAGA | 1.14
ATGGAT | 1.06
ATCGTC | 0.984
ACGAAC | 1.13
TTATTG | 1.24
ACAATA | 1.23

Pulled one by one from above:
Sequence | binding signal
TATGGT | 1.24
TAACAT | 1.29

Remaining list, next part.

Sequence | binding signal
AACTGC | 1.37
AACACA | 1.33
CCCTAC | 1.46
CGCCTC | 1.36
ATAGCT | 1.07
GTTTCG | 1.24
CTTGGG | 1.13
TAAAGA | 1.1
CTGATA | 1.12
CCTATT | 1.57
TCGTAC | 1.08
CTGAAT | 1.34
ATCCCC | 1.34
ATAGCA | 1.08
AAGTCT | 1.18
